Assay results from article PMC6662305, “The basic helix‐loop‐helix transcription factor, OsPIL15, regulates grain size via directly targeting a purine permease gene OsPUP7 in rice”.
Results are given in words; binding and its absence hold for the method and conditions named. Some entries that bind do so weakly or less than the wild type. Values belong to the binder of their own block, whether it stands above or below them.

Target: T1, OsPIL15 (rice (Oryza sativa L.)) (UniProt Q0JNI9)
T1 sequence: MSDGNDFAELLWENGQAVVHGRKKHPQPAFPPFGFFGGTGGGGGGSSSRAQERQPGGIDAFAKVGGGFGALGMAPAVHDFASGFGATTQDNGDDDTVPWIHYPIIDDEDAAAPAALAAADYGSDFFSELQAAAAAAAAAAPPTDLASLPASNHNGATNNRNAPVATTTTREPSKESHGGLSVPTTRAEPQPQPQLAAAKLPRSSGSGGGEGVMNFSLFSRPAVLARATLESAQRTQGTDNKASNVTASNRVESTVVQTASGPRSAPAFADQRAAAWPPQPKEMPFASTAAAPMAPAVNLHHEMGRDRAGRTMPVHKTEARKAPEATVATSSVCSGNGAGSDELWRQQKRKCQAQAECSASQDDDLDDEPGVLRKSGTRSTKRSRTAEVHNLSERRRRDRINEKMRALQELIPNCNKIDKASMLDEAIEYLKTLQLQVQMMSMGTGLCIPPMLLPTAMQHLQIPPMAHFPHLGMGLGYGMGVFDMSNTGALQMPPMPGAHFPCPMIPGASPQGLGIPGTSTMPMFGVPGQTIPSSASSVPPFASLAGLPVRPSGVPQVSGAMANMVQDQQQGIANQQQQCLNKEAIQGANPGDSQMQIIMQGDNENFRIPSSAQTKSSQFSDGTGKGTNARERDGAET
Test: two-hybrid; split-ubiquitin yeast two-hybrid (DUALhunter kit); OsPIL15 in pDHB1 (bait), OsPGL1 or OsPGL2 in pPR3-N (prey); yeast NMY51; growth on SD-LTH and SD-LTHA, serial dilutions spotted on plates with 5 mM 3-AT

binding: binds weakly
B1: OsPGL1 (protein, UniProt Q0DUR2 1-92)
chain: MSSRRSRSRQSGSSRITDEQISDLVSKLQDLLPEARLRSNDRVPSSRVLQETCNYIRSLHQEVDDLSERLSELLATSDMSSAQAAIIRSLLM

binding: no binding
B2: OsPGL2 (protein, UniProt Q6YUX0 1-88)
chain: MSSRRSSRGSISEEEINELISKLQSLLPNSRRRGSSQASTTKLLKETCNYIKSLHREVDDLSDRLSDLMATMDHNSPGAEIIRSILRS
